Results taken from PubChem BioAssay AID1487 (National Center for Advancing Translational Sciences (NCATS), 2009).
The other results are listed elsewhere or left out. Shown are side measurements of this screen, not its main read-out; they come without a call. Most of these compounds were active or inconclusive in the main read-out, so they are no random draw. The note in brackets gives the kind of curve behind each potency; many fits are weak.

Test: qHTS Assay for Modulators of Lamin A Splicing
Conditions: HeLa LMNA splicing GFP/RFP minigene ratio, 48 h
Method in brief: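 Read-out is the ratio of GFP to DsRed2 object intensity, acquired by 488 nm laser-scanning cytometry on HeLa lamin A-EGFP minigene reporter cells. Compound incubation 48 hrs at 37 °C in Opti-MEM with 2% FBS; DMSO 0.5% final.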

[1] = measured here: GFP splicing reporter channel
[2] = measured here: RFP viability control channel

| SMILES | AC50 [1] | AC50 [2] |
| --- | --- | --- |
| O=C(Cc1cccc2ccccc12)Nc1ccc2c(c1)C(=O)NC2=O | 0.00562 µM [rising, full curve, poor fit] | 0.0398 µM [rising, full curve] |
| CC(NC(=O)CSc1nnc(-c2cc3cc(Cl)ccc3o2)n1C)c1ccccc1 (stereo not given) |  | 35.5 µM [rising, single point] |
| CCCCNC(=S)Nc1ccc2nc3n(c(=O)c2c1)CCCCC3 |  | 35.5 µM [rising, single point] |
| CCOc1ccccc1C(=O)N1CCN(c2ccc(C(F)(F)F)cn2)CC1 |  | 11.2 µM [rising, single point] |
| COc1cc(OC)c(OC)cc1CN1CCc2nc(N3CCN(c4ccccc4F)CC3)ncc2C1 | 14.1 µM [falling, partial curve] |  |
| COc1ccc(C(=O)Nc2nc3ccccc3c(=O)[nH]2)cc1 |  | 0.0355 µM [falling, full curve, poor fit] |
| Cc1nc(N2CCN(C(=O)c3ccco3)CC2)c2oc3ccccc3c2n1 | 20 µM [rising, partial curve, poor fit] | 28.2 µM [rising, single point] |
| CN(CC(=O)Nc1cccc(F)c1)CC(=O)Nc1ccccc1[N+](=O)[O-] |  | 35.5 µM [falling, single point] |
| O=C(/C=C/c1ccccc1)NC(NC(=S)Nc1cccc(O)c1)C(Cl)(Cl)Cl (stereo not given) |  | 12.6 µM [rising, single point] |
| COc1ccc(/C=C(/CC(=O)NCc2ccc(Cl)cc2)c2nc3ccccc3s2)cc1 | 10 µM [rising, partial curve, poor fit] | 14.1 µM [rising, partial curve, poor fit] |
| Cc1cc(Br)ccc1OCC(=O)NNC(=O)c1cnccn1 | 17.8 µM [rising, single point] | 17.8 µM [rising, single point] |
| COc1ccc(C)cc1S(=O)(=O)NCC(c1ccc(N(C)C)cc1)N1CCc2ccccc21 (stereo not given) | 35.5 µM [falling, single point] |  |
| CCc1nc2ccccc2c(=O)n1NC(=O)c1c(O)c2ccccc2n(CC)c1=O | 0.631 µM [falling, single point] |  |
| N=c1c(C(=O)NCc2ccc(F)cc2)cc2c(=O)n3ccccc3nc2n1Cc1ccco1 |  | 11.2 µM [rising, partial curve] |
| O=C(Nc1ccc(S(=O)(=O)NCc2cccnc2)cc1)c1ccccc1Cl |  | 8.91 µM [rising, partial curve] |
| CCN(CC)S(=O)(=O)c1cccc(NC(=O)C2SC(=Nc3ccc(C)cc3C)C(C(=O)NC(C)COC)=C2N)c1 (stereo not given) |  | 14.1 µM [rising, single point] |
| COc1cc(OC)c(/C=N/n2c(C)nnc2C)c(OC)c1 |  | 31.6 µM [rising, single point] |
| CCOc1ccccc1C1C(C#N)=C(N)SC(N)=C1C#N |  | 35.5 µM [rising, single point] |
| Cc1ccc(-c2ccnc3nc(-n4cccc4)nn23)o1 |  | 0.112 µM [falling, full curve, poor fit] |
| CC(C)Oc1ccc(C(=O)Nc2ccc(-c3nc4ccccc4s3)cc2)cc1 | 6.31 µM [rising, single point] |  |
| N#CC(C#N)=NNc1ccc(S(=O)(=O)N2CCCC2)cc1 | 12.6 µM [rising, partial curve] |  |
| Cn1ccnc1SCC(=O)Nc1cc(S(=O)(=O)N2CCOCC2)ccc1Cl | 15.8 µM [rising, partial curve, poor fit] | 14.1 µM [rising, partial curve, poor fit] |
| CCNc1ncc2nc(-c3cn(C)c4ccccc34)c(=O)n(C)c2n1 | 0.282 µM [falling, full curve, poor fit] | 8.91 µM [falling, partial curve, poor fit] |
| O=C(Nc1ccc(S(=O)(=O)N2CCCCC2)cc1)c1ccc(CN2CCOCC2)cc1 | 3.98 µM [rising, partial curve] | 1.41 µM [rising, partial curve] |
| Cc1cc(C)c(-n2c(C)cc(/C=C3/NC(=O)NC3=O)c2C)c(C)c1 |  | 22.4 µM [falling, single point] |
| CCc1ccc(OCC(=O)Nc2ccc(-c3cc4ccccc4oc3=O)c(OC)c2)cc1 | 8.91 µM [rising, partial curve, poor fit] | 12.6 µM [rising, partial curve] |
| Cc1cc(C(=O)Nc2cccnc2)cs1 |  | 14.1 µM [rising, single point] |
| Cc1ccc(Cl)cc1NC(=O)CCCN1C(=O)CCn2nc(-c3cn(C)c4ccccc34)cc21 | 0.0224 µM [falling, full curve, poor fit] | 0.00316 µM [falling, full curve, poor fit] |

Two entries drawn at random from the list so far:

| SMILES | AC50 [1] | AC50 [2] |
| --- | --- | --- |
| Cc1cc(Br)ccc1OCC(=O)NNC(=O)c1cnccn1 | 17.8 µM [rising, single point] | 17.8 µM [rising, single point] |
| N#CC(C#N)=NNc1ccc(S(=O)(=O)N2CCCC2)cc1 | 12.6 µM [rising, partial curve] |  |

The list goes on:

| SMILES | AC50 [1] | AC50 [2] |
| --- | --- | --- |
| Cc1cc(Cl)c(S(=O)(=O)N2CCSCC2)cc1OCC(=O)NC1CCCCC1 | 2 µM [rising, full curve] | 2.82 µM [rising, full curve] |
| Cc1noc(C)c1S(=O)(=O)N1CCC(Cc2ccccc2)CC1 | 35.5 µM [rising, single point] | 35.5 µM [rising, single point] |
| Cc1nc2c(c3c1[nH]c1ccccc13)C(=O)CC(C)(C)C2 |  | 15.8 µM [rising, single point] |
| O=C(CC1SCCNC1=O)Nc1ccc(Cl)cc1 (stereo not given) | 0.00282 µM [rising, full curve, poor fit] |  |
| Cc1cccn2c(=O)c(C=Nc3ccc(Cl)cc3)c(NCCO)nc12 |  | 22.4 µM [rising, single point] |
| Cc1ccc(C(=O)N2CC(C)SC2=Nc2cccc(S(=O)(=O)N(C)C)c2)cc1 (stereo not given) |  | 31.6 µM [rising, single point] |
| O=C(CSc1nc2ccccc2nc1Cc1ccccc1)N1CCN(c2ccccc2)CC1 | 0.398 µM [rising, single point] |  |
| Cc1ccc(S(=O)(=O)N2CCOCC2)cc1C(=O)Nc1ccc2c(c1)CCC2 |  | 22.4 µM [rising, single point] |
| Cc1ccc(OCCn2c(=O)cnc3ccccc32)cc1 | 15.8 µM [rising, single point] | 25.1 µM [rising, single point] |
| Cc1nnc2sc(-c3csc4c3CCCC4)nn12 | 14.1 µM [falling, single point] | 15.8 µM [falling, single point] |
| CC12CCC(c3c(C(=O)Nc4nccs4)nn(-c4ccccc4)c31)C2(C)C (stereo not given) | 17.8 µM [rising, partial curve] | 22.4 µM [rising, single point] |
| Cc1ccc(OCc2nnc(SCC(=O)CC(=O)Nc3ccccc3)o2)cc1 |  | 17.8 µM [rising, single point] |
| CC(=S)c1c(C)cc2cc(C)ccn12 | 7.08 µM [rising, partial curve, poor fit] | 7.94 µM [rising, partial curve, poor fit] |
| COc1ccc(C2C3=C(N=C4SCC(=O)N42)c2ccccc2CC3)cc1 (stereo not given) | 10 µM [rising, partial curve] | 10 µM [rising, partial curve] |
| CC(Sc1cnccn1)C(=O)O (stereo not given) |  | 0.0562 µM [rising, full curve, poor fit] |
| Oc1ccccc1/C=N/NC(=S)NC1CC2CCC1C2 (stereo not given) | 11.2 µM [falling, partial curve, poor fit] |  |
| CC1(C)O[C@@H]2C[C@@H]3[C@H]4C[C@@H](F)C5=CC(=O)C=C[C@]5(C)[C@@]4(F)[C@@H](O)C[C@]3(C)[C@]2(C(=O)CO)O1 | 35.5 µM [falling, single point] | 0.316 µM [falling, partial curve, poor fit] |
| O=C(CCCN1C(=O)/C(=C/c2ccco2)SC1=S)Nc1ccccc1 |  | 17.8 µM [rising, partial curve] |
| O=C(COc1ccc(Br)cc1Cl)NC1CCCCC1 | 15.8 µM [rising, partial curve, poor fit] | 17.8 µM [rising, partial curve] |
| N#Cc1ccc(NC(=O)Nc2ccc(Oc3ccc(NC(=O)Nc4ccc(C#N)cc4)cc3)cc2)cc1 | 35.5 µM [rising, single point] | 31.6 µM [rising, single point] |
| CCOc1ccc(-n2c(SCc3ccc([N+](=O)[O-])cc3)nnc2-c2ccccc2)cc1 |  | 31.6 µM [rising, single point] |
| Cn1ncc([N+](=O)[O-])c1C(=O)Nc1ccc(-c2nc3ccccc3o2)cc1 | 3.98 µM [falling, single point] | 4.47 µM [falling, full curve, poor fit] |
| CC1(C)CC(=O)c2c(oc3ccc(NS(=O)(=O)c4ccc(C(=O)O)cc4)cc23)C1 |  | 1.58 µM [rising, partial curve, poor fit] |
| Cc1ccccc1-n1cc(CNC(=O)CCc2nnc(CCc3ccccc3)o2)cn1 | 0.00316 µM [falling, full curve, poor fit] |  |
| O=C(NCc1ccco1)c1ccc(Oc2ccccc2)cc1 |  | 35.5 µM [rising, single point] |
| Cc1ccc(CC(=O)Nc2ccc(F)c([N+](=O)[O-])c2)cc1 |  | 11.2 µM [rising, partial curve, poor fit] |
| CCCCCCOC(=O)Nc1ccc(S(=O)(=O)Nc2cccc([N+](=O)[O-])c2)cc1 |  | 12.6 µM [rising, partial curve] |
